These are yes or no findings as the source states them, for the method shown. For some assays here: Binding seen in cells or lysates may run through a third protein. Some entries that bind do so weakly or less than the wild type. For some assays here: Sequences can lack the tags named with a protein.
Columns and labels:
TSSC4-FLAG (human) = TSSC4-FLAG (human) (UniProt Q9Y5U2); experiment: co-IP; anti-GFP or anti-FLAG antibodies pre-bound to agarose beads, overnight at 4 °C; lysates of transfected HeLa cells in NET2 buffer (50 mM Tris-HCl pH 7.4, 150 mM NaCl, 0.05% Nonidet P-40); western blot; also from RNase A treated lysates (Fig. 1d)
TSSC4 ΔHom4-GFP (human) = biological target: T1, TSSC4 ΔHom4-GFP (human) (UniProt Q9Y5U2); experiment: as above
T1 sequence: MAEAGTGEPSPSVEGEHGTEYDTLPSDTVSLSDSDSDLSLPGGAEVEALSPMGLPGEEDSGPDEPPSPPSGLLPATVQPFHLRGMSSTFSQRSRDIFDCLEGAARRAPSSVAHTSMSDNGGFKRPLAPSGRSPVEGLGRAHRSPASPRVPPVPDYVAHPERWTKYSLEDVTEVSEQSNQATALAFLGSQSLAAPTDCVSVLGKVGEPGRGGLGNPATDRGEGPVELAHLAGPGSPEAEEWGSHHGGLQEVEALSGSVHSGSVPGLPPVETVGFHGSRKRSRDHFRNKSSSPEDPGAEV

The chains behind the UniProt entries cited, without tags or fusion partners.
UniProt Q99459: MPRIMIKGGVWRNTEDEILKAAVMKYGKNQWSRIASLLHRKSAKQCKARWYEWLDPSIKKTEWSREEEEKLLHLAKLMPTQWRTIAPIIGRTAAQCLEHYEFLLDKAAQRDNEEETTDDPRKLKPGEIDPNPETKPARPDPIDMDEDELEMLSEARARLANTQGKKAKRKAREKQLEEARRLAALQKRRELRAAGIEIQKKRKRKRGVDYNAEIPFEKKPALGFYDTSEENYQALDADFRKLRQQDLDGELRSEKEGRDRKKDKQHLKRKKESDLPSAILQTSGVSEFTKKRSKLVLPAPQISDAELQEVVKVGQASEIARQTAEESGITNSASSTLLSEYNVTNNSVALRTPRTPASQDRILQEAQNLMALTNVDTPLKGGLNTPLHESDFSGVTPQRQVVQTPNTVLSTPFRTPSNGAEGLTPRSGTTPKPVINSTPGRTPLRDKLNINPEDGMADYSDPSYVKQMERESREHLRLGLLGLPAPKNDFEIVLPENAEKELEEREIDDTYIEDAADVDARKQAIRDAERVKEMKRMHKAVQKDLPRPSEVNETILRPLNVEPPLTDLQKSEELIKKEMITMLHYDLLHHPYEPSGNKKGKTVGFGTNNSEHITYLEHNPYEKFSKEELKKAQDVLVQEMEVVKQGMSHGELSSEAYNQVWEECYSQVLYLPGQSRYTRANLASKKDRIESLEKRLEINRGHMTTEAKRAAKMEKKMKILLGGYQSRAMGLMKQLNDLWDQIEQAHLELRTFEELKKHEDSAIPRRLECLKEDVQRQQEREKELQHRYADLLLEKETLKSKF
UniProt O75643: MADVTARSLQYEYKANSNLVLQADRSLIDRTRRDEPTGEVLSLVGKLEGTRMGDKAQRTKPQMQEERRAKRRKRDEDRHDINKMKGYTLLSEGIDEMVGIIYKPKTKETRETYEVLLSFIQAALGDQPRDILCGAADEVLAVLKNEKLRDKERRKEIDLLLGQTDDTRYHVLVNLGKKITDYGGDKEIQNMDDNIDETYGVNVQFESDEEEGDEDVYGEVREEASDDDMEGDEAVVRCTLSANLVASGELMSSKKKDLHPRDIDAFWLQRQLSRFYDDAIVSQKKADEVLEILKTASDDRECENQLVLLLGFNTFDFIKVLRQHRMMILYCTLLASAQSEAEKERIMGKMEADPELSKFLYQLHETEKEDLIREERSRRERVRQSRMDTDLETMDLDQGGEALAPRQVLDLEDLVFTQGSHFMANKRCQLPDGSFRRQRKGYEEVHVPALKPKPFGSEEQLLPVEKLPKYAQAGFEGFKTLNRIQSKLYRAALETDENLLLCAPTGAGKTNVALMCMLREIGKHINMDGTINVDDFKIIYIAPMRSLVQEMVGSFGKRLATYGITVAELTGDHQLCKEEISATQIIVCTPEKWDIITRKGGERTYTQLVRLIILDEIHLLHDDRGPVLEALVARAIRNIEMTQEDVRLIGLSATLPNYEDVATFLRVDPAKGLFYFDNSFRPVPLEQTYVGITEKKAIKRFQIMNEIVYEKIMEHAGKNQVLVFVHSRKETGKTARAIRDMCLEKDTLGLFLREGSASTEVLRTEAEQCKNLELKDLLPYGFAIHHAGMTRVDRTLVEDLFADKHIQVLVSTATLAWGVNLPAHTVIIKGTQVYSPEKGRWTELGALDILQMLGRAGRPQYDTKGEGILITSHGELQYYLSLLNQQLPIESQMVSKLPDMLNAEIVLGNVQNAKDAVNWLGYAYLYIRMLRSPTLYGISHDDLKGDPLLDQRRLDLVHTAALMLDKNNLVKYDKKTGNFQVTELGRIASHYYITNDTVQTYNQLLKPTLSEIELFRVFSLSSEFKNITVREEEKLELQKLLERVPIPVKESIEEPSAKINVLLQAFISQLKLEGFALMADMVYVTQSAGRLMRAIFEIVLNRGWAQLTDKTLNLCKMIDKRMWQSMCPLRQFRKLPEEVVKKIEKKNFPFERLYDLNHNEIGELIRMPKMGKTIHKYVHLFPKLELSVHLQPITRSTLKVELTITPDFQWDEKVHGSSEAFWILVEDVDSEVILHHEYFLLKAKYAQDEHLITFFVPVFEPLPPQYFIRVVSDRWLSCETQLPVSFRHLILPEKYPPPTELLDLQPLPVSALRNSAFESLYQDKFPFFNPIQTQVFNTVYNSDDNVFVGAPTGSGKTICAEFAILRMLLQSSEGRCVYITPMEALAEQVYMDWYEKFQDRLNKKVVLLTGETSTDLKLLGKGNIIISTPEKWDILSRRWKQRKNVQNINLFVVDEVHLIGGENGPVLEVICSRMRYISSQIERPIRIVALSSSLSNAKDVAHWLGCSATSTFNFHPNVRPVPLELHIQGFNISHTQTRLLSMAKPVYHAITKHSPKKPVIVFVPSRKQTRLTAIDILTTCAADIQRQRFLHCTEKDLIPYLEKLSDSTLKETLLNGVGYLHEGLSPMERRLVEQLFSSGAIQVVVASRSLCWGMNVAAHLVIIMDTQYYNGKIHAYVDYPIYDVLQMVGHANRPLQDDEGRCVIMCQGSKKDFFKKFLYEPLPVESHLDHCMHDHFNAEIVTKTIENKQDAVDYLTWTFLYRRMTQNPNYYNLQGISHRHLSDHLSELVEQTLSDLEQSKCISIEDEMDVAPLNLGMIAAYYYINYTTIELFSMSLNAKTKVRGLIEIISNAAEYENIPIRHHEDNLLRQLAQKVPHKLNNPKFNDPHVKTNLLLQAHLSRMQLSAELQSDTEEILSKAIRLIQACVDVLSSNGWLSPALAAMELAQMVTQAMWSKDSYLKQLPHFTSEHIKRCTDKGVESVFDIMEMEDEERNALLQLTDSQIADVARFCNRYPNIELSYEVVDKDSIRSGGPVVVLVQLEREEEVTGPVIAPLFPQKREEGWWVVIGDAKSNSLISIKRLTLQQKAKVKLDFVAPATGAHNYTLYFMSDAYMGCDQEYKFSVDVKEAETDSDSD

[1] = biological target: T2, TSSC4 Δ201–250-GFP (human) (UniProt Q9Y5U2); experiment: as above
T2 sequence: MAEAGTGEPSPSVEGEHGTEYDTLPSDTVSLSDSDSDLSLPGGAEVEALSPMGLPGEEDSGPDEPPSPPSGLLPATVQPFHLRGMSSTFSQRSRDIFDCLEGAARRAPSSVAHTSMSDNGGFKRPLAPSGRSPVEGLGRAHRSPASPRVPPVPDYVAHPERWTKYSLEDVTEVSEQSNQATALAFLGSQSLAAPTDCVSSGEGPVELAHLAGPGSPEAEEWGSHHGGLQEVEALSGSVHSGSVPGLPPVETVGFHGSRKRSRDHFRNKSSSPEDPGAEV

TSSC4-GFP (human) = TSSC4-GFP (human) (UniProt Q9Y5U2); experiment: as above
[2] = biological target: T3, TSSC4 Δ151–200-GFP (human) (UniProt Q9Y5U2); experiment: as above
T3 sequence: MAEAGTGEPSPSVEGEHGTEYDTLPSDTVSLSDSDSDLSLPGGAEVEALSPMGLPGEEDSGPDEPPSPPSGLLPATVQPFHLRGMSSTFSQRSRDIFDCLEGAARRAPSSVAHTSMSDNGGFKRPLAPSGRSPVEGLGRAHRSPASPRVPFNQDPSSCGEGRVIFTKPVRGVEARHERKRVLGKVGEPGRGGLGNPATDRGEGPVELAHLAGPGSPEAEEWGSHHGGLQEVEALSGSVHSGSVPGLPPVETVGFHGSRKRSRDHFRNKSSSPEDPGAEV

[3] = biological target: T4, TSSC4 Δ51–100-GFP (human) (UniProt Q9Y5U2); experiment: as above
T4 sequence: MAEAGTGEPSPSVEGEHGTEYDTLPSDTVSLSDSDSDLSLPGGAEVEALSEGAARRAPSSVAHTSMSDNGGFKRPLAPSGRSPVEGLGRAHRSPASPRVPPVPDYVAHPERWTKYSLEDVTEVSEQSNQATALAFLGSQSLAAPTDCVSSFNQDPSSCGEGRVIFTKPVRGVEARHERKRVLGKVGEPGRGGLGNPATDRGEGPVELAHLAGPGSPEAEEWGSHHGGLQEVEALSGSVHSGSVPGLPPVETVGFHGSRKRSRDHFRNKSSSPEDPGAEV

TSSC4 ΔHom2-GFP (human) = biological target: T5, TSSC4 ΔHom2-GFP (human) (UniProt Q9Y5U2); experiment: as above
T5 sequence: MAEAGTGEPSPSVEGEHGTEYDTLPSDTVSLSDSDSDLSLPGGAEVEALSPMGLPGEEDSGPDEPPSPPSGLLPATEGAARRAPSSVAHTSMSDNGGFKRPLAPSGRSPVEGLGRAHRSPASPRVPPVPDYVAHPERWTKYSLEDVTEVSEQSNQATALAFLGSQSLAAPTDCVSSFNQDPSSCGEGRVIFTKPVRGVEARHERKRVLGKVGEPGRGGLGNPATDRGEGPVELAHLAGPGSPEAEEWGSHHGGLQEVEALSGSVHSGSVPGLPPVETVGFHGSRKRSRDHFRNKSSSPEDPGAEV

[4] = biological target: TSSC4 Hom4-2_Ala-GFP (human) (UniProt Q9Y5U2); experiment: as above
TSSC4-DDX6-dsRed (human) = TSSC4-DDX6-dsRed (human) (UniProt Q9Y5U2); experiment: P-body tethering assay; TSSC4-DDX6-dsRed targeted to cytoplasmic P-bodies in HeLa cells; co-recruitment of GFP- or FLAG-tagged proteins seen by fluorescence microscopy, 50 P-bodies quantified for each condition

Substance | binding (TSSC4-FLAG (human)) | binding (TSSC4 ΔHom4-GFP (human)) | binding [1] | binding (TSSC4-GFP (human)) | binding [2] | binding [3] | binding (TSSC4 ΔHom2-GFP (human)) | binding [4] | binding (TSSC4-DDX6-dsRed (human))
TSSC4-FLAG (from UniProt Q9Y5U2 1-329) | no binding | – | – | – | – | – | – | – | –
CDC5L (from UniProt Q99459 1-802) | binds | binds weakly | binds weakly | binds | binds | – | – | – | –
SNRNP200 (from UniProt O75643 1-2136) | – | binds | binds | binds | binds | binds | binds | binds | –
SNRNP200-GFP (from UniProt O75643 1-2136) | – | – | – | – | – | – | – | – | binds

Reference: publication PMC8206348
